In the supplement of paper PMC10077471:
Whole data set: some 1,900 compounds, median “excess over highest single agent (ExcessHSA) synergy score, 6x6 matrix” near -83, cut for the lowest 2% near -370. The list shows a part of the results.

These molecules were tested on NCI-H446 (assay: excess over highest single agent (ExcessHSA) synergy score, 6x6 matrix; higher = less synergy (more negative = stronger synergy)). Conditions: 72 h; CellTiter-Glo viability.

Point of comparison: `O=C(O)c1ccc(O)c2ncc(N3CCOCC3)cc12` + Cc1sc2c(c1C)C(c1ccc(Cl)cc1)=N[C@@H](CC(=O)OC(C)(C)C)c1nnc(C)n1-2 [NCGC00250412-19], “excess over highest single agent” value 280. Against it:
- O[C@@H](CNC[C@H](O)[C@H]1CCc2cc(F)ccc2O1)[C@@H]1CCc2cc(F)ccc2O1 + Cc1sc2c(c1C)C(c1ccc(Cl)cc1)=N[C@@H](CC(=O)OC(C)(C)C)c1nnc(C)n1-2 [NCGC00250412-19] — lower, -95.2
- O=C(O)c1cc(=O)[nH]c(=O)[nH]1 + Cc1sc2c(c1C)C(c1ccc(Cl)cc1)=N[C@@H](CC(=O)OC(C)(C)C)c1nnc(C)n1-2 [NCGC00250412-19] — lower, 0.93
- O=c1n(CCCN2CCN(c3cccc(Cl)c3)CC2)nc2ccccn12 + Cc1sc2c(c1C)C(c1ccc(Cl)cc1)=N[C@@H](CC(=O)OC(C)(C)C)c1nnc(C)n1-2 [NCGC00250412-19] — lower, 7.14
- Oc1ccc(-c2nc(-c3ccc(F)cc3)c(-c3ccncc3)[nH]2)cc1 + Cc1sc2c(c1C)C(c1ccc(Cl)cc1)=N[C@@H](CC(=O)OC(C)(C)C)c1nnc(C)n1-2 [NCGC00250412-19] — lower, -11
- CCC(NC(C)C)C(O)c1ccc(O)c2[nH]c(=O)ccc12 (stereo not given) + Cc1sc2c(c1C)C(c1ccc(Cl)cc1)=N[C@@H](CC(=O)OC(C)(C)C)c1nnc(C)n1-2 [NCGC00250412-19] — lower, -103
- COc1ccc2c(c1)[C@]13CCCC[C@@H]1[C@H](C2)N(C)CC3 + Cc1sc2c(c1C)C(c1ccc(Cl)cc1)=N[C@@H](CC(=O)OC(C)(C)C)c1nnc(C)n1-2 [NCGC00250412-19] — lower, 30.1
- O=C(NC[C@H](O)CO)c1ccncc1Nc1ccc(I)cc1F + Cc1sc2c(c1C)C(c1ccc(Cl)cc1)=N[C@@H](CC(=O)OC(C)(C)C)c1nnc(C)n1-2 [NCGC00250412-19] — lower, -207
- O=C(O)c1ccc2cc(-c3ccc(O)c(C45CC6CC(CC(C6)C4)C5)c3)ccc2c1 + Cc1sc2c(c1C)C(c1ccc(Cl)cc1)=N[C@@H](CC(=O)OC(C)(C)C)c1nnc(C)n1-2 [NCGC00250412-19] — lower, -225
- C=C[C@H]1CN2CC[C@H]1C[C@H]2[C@H](O)c1ccnc2ccccc12 + Cc1sc2c(c1C)C(c1ccc(Cl)cc1)=N[C@@H](CC(=O)OC(C)(C)C)c1nnc(C)n1-2 [NCGC00250412-19] — lower, -73.2
- Cc1ncc([N+](=O)[O-])n1CC(C)O (stereo not given) + Cc1sc2c(c1C)C(c1ccc(Cl)cc1)=N[C@@H](CC(=O)OC(C)(C)C)c1nnc(C)n1-2 [NCGC00250412-19] — lower, 112
- c1cc(N[C@@H]2CCNC2)nc(-c2cnc3ccc(-c4cn[nH]c4)cn23)c1 + Cc1sc2c(c1C)C(c1ccc(Cl)cc1)=N[C@@H](CC(=O)OC(C)(C)C)c1nnc(C)n1-2 [NCGC00250412-19] — lower, -284
- C/C=C(/C(=C/C)c1ccc(O)cc1)c1ccc(O)cc1 + Cc1sc2c(c1C)C(c1ccc(Cl)cc1)=N[C@@H](CC(=O)OC(C)(C)C)c1nnc(C)n1-2 [NCGC00250412-19] — lower, -25.6
- OCCn1cc(-c2cnc3nnn(Cc4ccc5ncccc5c4)c3n2)cn1 + Cc1sc2c(c1C)C(c1ccc(Cl)cc1)=N[C@@H](CC(=O)OC(C)(C)C)c1nnc(C)n1-2 [NCGC00250412-19] — lower, -235
- O=[N+]([O-])c1ccc(Nc2ccccc2-c2ccccc2)c2nonc12 + Cc1sc2c(c1C)C(c1ccc(Cl)cc1)=N[C@@H](CC(=O)OC(C)(C)C)c1nnc(C)n1-2 [NCGC00250412-19] — lower, -89.8
- C[C@]12CCC(=O)C=C1[C@@H]1C[C@@H]1[C@H]1[C@@H]3[C@@H]4C[C@@H]4[C@@]4(CCC(=O)O4)[C@@]3(C)CC[C@@H]12 + Cc1sc2c(c1C)C(c1ccc(Cl)cc1)=N[C@@H](CC(=O)OC(C)(C)C)c1nnc(C)n1-2 [NCGC00250412-19] — lower, -150
- COc1ccc2cc([C@H](C)C(=O)O)ccc2c1 + Cc1sc2c(c1C)C(c1ccc(Cl)cc1)=N[C@@H](CC(=O)OC(C)(C)C)c1nnc(C)n1-2 [NCGC00250412-19] — lower, -82.6
- Cc1ccccc1-n1c(Cn2cnc3c(N)ncnc32)nc2cccc(C)c2c1=O + Cc1sc2c(c1C)C(c1ccc(Cl)cc1)=N[C@@H](CC(=O)OC(C)(C)C)c1nnc(C)n1-2 [NCGC00250412-19] — lower, -164
- OC1CCC(Nc2ncc3nc(Nc4c(F)cc(F)cc4F)n([C@@H]4CCOC4)c3n2)CC1 (stereo not given in full) + Cc1sc2c(c1C)C(c1ccc(Cl)cc1)=N[C@@H](CC(=O)OC(C)(C)C)c1nnc(C)n1-2 [NCGC00250412-19] — lower, 17.3
- COc1ccc(C2=N[C@@H](c3ccc(Cl)cc3)[C@@H](c3ccc(Cl)cc3)N2C(=O)N2CCNC(=O)C2)c(OC(C)C)c1 + Cc1sc2c(c1C)C(c1ccc(Cl)cc1)=N[C@@H](CC(=O)OC(C)(C)C)c1nnc(C)n1-2 [NCGC00250412-19] — lower, -130
- NC(=O)c1ccc(I)c([N+](=O)[O-])c1 + Cc1sc2c(c1C)C(c1ccc(Cl)cc1)=N[C@@H](CC(=O)OC(C)(C)C)c1nnc(C)n1-2 [NCGC00250412-19] — lower, -34.5
- c1ccc(-c2oc3ncnc(NC[C@@H]4CCCO4)c3c2-c2ccccc2)cc1 + Cc1sc2c(c1C)C(c1ccc(Cl)cc1)=N[C@@H](CC(=O)OC(C)(C)C)c1nnc(C)n1-2 [NCGC00250412-19] — lower, 91.3
- COCC1(CO)C(=O)C2CCN1CC2 (stereo not given) + Cc1sc2c(c1C)C(c1ccc(Cl)cc1)=N[C@@H](CC(=O)OC(C)(C)C)c1nnc(C)n1-2 [NCGC00250412-19] — lower, -60.5
- O=C(O)c1cc(/N=N/c2ccc(S(=O)(=O)Nc3ccccn3)cc2)ccc1O + Cc1sc2c(c1C)C(c1ccc(Cl)cc1)=N[C@@H](CC(=O)OC(C)(C)C)c1nnc(C)n1-2 [NCGC00250412-19] — lower, -71.1
- COc1cc2ncnc(-n3nc(-c4ccccn4)nc3N)c2cc1OC + Cc1sc2c(c1C)C(c1ccc(Cl)cc1)=N[C@@H](CC(=O)OC(C)(C)C)c1nnc(C)n1-2 [NCGC00250412-19] — lower, 44.6
- C[C@]12CCC3=C4CCC(=O)C=C4CC[C@H]3[C@@H]1CC[C@@]2(O)CC#N + Cc1sc2c(c1C)C(c1ccc(Cl)cc1)=N[C@@H](CC(=O)OC(C)(C)C)c1nnc(C)n1-2 [NCGC00250412-19] — lower, 23.5
- O=C(O)[C@H](CC(=O)N1C[C@H]2CCCC[C@H]2C1)Cc1ccccc1 + Cc1sc2c(c1C)C(c1ccc(Cl)cc1)=N[C@@H](CC(=O)OC(C)(C)C)c1nnc(C)n1-2 [NCGC00250412-19] — lower, -141
- c1coc(CNc2ncnc3[nH]cnc23)c1 + Cc1sc2c(c1C)C(c1ccc(Cl)cc1)=N[C@@H](CC(=O)OC(C)(C)C)c1nnc(C)n1-2 [NCGC00250412-19] — lower, 40.4
- C[C@@H]1C[C@H]2[C@@H]3CCC4=CC(=O)C=C[C@]4(C)[C@@]3(Cl)[C@@H](O)C[C@]2(C)[C@@]1(OC(=O)c1ccco1)C(=O)CCl + Cc1sc2c(c1C)C(c1ccc(Cl)cc1)=N[C@@H](CC(=O)OC(C)(C)C)c1nnc(C)n1-2 [NCGC00250412-19] — lower, 13.7
- CCCCc1ccc2[nH]c(NC(=O)OC)nc2c1 + Cc1sc2c(c1C)C(c1ccc(Cl)cc1)=N[C@@H](CC(=O)OC(C)(C)C)c1nnc(C)n1-2 [NCGC00250412-19] — lower, -146
- COc1cc2ncnc(Nc3cccc(Cl)c3)c2cc1OC + Cc1sc2c(c1C)C(c1ccc(Cl)cc1)=N[C@@H](CC(=O)OC(C)(C)C)c1nnc(C)n1-2 [NCGC00250412-19] — lower, -52.1
- O=c1oc2cc(O)ccc2s1 + Cc1sc2c(c1C)C(c1ccc(Cl)cc1)=N[C@@H](CC(=O)OC(C)(C)C)c1nnc(C)n1-2 [NCGC00250412-19] — lower, -72.8
- CCn1c(-c2nonc2N)nc2c(C#CC(C)(C)O)ncc(OC[C@H]3CCCNC3)c21 + Cc1sc2c(c1C)C(c1ccc(Cl)cc1)=N[C@@H](CC(=O)OC(C)(C)C)c1nnc(C)n1-2 [NCGC00250412-19] — lower, -162
- CCN(CC)CCOc1ccc(Nc2ncc3cc(-c4c(Cl)cccc4Cl)c(=O)n(C)c3n2)cc1 + Cc1sc2c(c1C)C(c1ccc(Cl)cc1)=N[C@@H](CC(=O)OC(C)(C)C)c1nnc(C)n1-2 [NCGC00250412-19] — lower, -126
- CC=CC1=C(C(=O)O)N2C(=O)[C@@H](NC(=O)[C@H](N)c3ccc(O)cc3)[C@H]2SC1 + Cc1sc2c(c1C)C(c1ccc(Cl)cc1)=N[C@@H](CC(=O)OC(C)(C)C)c1nnc(C)n1-2 [NCGC00250412-19] — lower, -64
- CN1C(=O)C(Cc2c[nH]c3ccccc23)NC1=S (stereo not given) + Cc1sc2c(c1C)C(c1ccc(Cl)cc1)=N[C@@H](CC(=O)OC(C)(C)C)c1nnc(C)n1-2 [NCGC00250412-19] — lower, 69.4
- Cc1cc2c(s1)Nc1ccccc1N=C2N1CCN(C)CC1 + Cc1sc2c(c1C)C(c1ccc(Cl)cc1)=N[C@@H](CC(=O)OC(C)(C)C)c1nnc(C)n1-2 [NCGC00250412-19] — lower, -70.9
- CC(=NNC(=S)N1CCC1)c1ccccn1 + Cc1sc2c(c1C)C(c1ccc(Cl)cc1)=N[C@@H](CC(=O)OC(C)(C)C)c1nnc(C)n1-2 [NCGC00250412-19] — lower, -224
- CCOC(=O)[C@@H](N)CCC(=O)N[C@@H](CSCc1ccccc1)C(=O)N[C@@H](C(=O)OCC)c1ccccc1 + Cc1sc2c(c1C)C(c1ccc(Cl)cc1)=N[C@@H](CC(=O)OC(C)(C)C)c1nnc(C)n1-2 [NCGC00250412-19] — lower, 15.4
- Cc1ccc(NC(=O)C2(c3ccc4c(c3)OC(F)(F)O4)CC2)nc1-c1cccc(C(=O)O)c1 + Cc1sc2c(c1C)C(c1ccc(Cl)cc1)=N[C@@H](CC(=O)OC(C)(C)C)c1nnc(C)n1-2 [NCGC00250412-19] — lower, -81.1
